# From article PMC12447578, “Syndecan-4 interacts directly with β-parvin and regulates the ILK-PINCH-β-parvin complex, the β-parvin-β-PIX-Rac1 axis, and cardiomyocyte geometry in a sex-dependent manner” (Frontiers in Cell and Developmental Biology, 2025)
# Results are given in words; binding and its absence hold for the method and conditions named. Tags and fused reporters may be left off the sequences shown.
# T1: Full-length (FL) recombinant human C-Myc/DDK-β-parvin (human) (UniProt Q9HBI1)
# T1 sequence: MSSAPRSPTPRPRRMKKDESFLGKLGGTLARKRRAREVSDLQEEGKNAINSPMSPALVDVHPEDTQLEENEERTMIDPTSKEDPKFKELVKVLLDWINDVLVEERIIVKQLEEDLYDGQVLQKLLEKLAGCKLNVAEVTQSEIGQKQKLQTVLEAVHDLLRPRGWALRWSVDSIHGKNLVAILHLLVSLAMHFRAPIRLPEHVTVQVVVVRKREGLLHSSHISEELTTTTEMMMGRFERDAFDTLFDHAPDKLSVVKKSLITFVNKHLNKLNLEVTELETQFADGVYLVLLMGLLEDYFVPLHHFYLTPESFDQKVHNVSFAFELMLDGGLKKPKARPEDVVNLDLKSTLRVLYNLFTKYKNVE
# Target: T1, Full-length (FL) recombinant human C-Myc/DDK-β-parvin (human)
# Experiment: ELISA; wells coated with recombinant FL human β-parvin; biotinylated cytoplasmic tails of syndecans 1-4 or SDC4scram overlaid; as in Mathiesen et al., 2019; both purified
binder,measurement,value
"YRMKKKDEGSYSLEEPKQANGGAYQKPTKQEEFYA (peptide, UniProt P18827 276-310, biotin) [biotinylated cytoplasmic tail of syndecan-1 (SDC1cyt)]",binding,no binding
"RMRKKDEGSYDLGERKPSSAAYQKAPTKEFYA (peptide, UniProt P34741 170-201, biotin) [biotinylated cytoplasmic tail of syndecan-2 (SDC2cyt)]",binding,no binding
"YRMKKKDEGSYTLEEPKQASVTYQKPDKQEEFYA (peptide, UniProt O75056 409-442, biotin) [biotinylated cytoplasmic tail of syndecan-3 (SDC3cyt)]",binding,no binding
